# Measurements published in PubChem BioAssay AID504467 (National Center for Advancing Translational Sciences (NCATS), 2011).
# The campaign covered roughly 330,000 compounds. About 7,700 (2.3%) were called active. Inconclusive results, whose numbers are uncertain, are shown with a selection of clear calls. The call rests on the fitted dose curve; in most records, active means well fitted inhibition curve with a large enough effect; inconclusive means small, poorly fitted or top-dose-only effect, or effect the other way; inactive means flat fitted curve, though single readings scatter. Where the call is inconclusive, the potency comes from a doubtful curve fit.
# Test: qHTS screen for small molecules that inhibit ELG1-dependent DNA repair in human embryonic kidney (HEK293T) cells expressing luciferase-tagged ELG1; further: nearly all actives have a fitted effect of over 55% in size
# Details: HEK293T ELG1-luciferase reporter, luminescence, 16 h, DNA damage induced by 5-fluorouridine; activity change, negative = inhibition: at 46.1 µM (top of the series)
# How it was run: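 Step one: seed 2,000 cells per well. Step two: pin-transfer compound or DMSO alongside 5-fluorouridine. Step three: incubate 16 hr, 37 °C, 5% CO2. Step four: add ONE-Glo, wait 30 min, read luminescence.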
# On the % scale 0 is the no-effect control and ±100 the full control effect; potency means the concentration at half of the fitted maximal effect.
SMILES,Potency,"activity change, negative = inhibition"
Cc1cc(O)cc2c1C(c1ccc(F)cc1)CC1(CC(C)(C)NC(=S)N1)O2 (stereo unspecified),"inconclusive: 16.4 µM [inhibitor, partial curve, poor fit]",
O=C(O)/C=C/C(=O)c1ccc(O)cc1,"inconclusive: 6.51 µM [inhibitor, single point]",
COc1ccc(N2C(=O)CC(N3CCN(S(=O)(=O)c4ccc(Cl)cc4)CC3)C2=O)cc1 (stereo unspecified),inactive,
Nn1cnc2scc(-c3ccc(Cl)cc3)c2c1=O,inactive,
CC1Cc2ccccc2N1C(=O)CNc1cccc(S(=O)(=O)N2CCCC2)c1 (stereo unspecified),"inconclusive: 29.1 µM [inhibitor, single point]",
Cc1ccc(/C=c2\sc3nc(-c4cccnc4)nn3c2=O)cc1,inactive,
O=C(CCc1ccccc1)Nc1nnc(-c2cccs2)o1,inactive,
O=C(Nc1ccccc1N1CCN(C(=O)c2ccccc2)CC1)c1cc2ccccc2o1,"inconclusive: 5.8 µM [inhibitor, single point]",
O=C(CN1CCN(S(=O)(=O)c2ccc(Cl)cc2)CC1)c1ccc(O)c(O)c1,inactive,
CS(=O)(=O)N1CCc2cc(S(=O)(=O)N3CCN(Cc4ccc5c(c4)OCO5)CC3)ccc21,"inconclusive: 16.4 µM [inhibitor, partial curve, poor fit]",
CCOC(=O)[C@H]1[C@H]2COc3ccc(C)cc3[C@@H]2N2C(=O)c3ccc(C)cc3NC(=O)[C@@]12C,inactive,
Cc1ccc(S(=O)(=O)N2CCOCC2)cc1NC(=O)c1ccc(F)cc1F,inactive,
COc1ccc(-c2nc(NC(=O)c3ccc(OCC(=O)N4CCOCC4)c(OC)c3)sc2C)cc1,"inconclusive: 25.9 µM [inhibitor, single point]",
COC(=O)Nc1ccc(S(=O)(=O)N2CCCC(C(=O)Nc3cccc4c3OCCO4)C2)cc1 (stereo unspecified),active: 20.6 µM,
CCOC(=O)c1sc2nc(NC(=O)C3CCCCC3)sc2c1C,"inconclusive: 3.66 µM [inhibitor, single point]",
Cc1ccc(Nc2c([N+](=O)[O-])c(=O)n(C)c3ccccc23)cc1,,inconclusive: 22.1% [activator]
Cc1ccccc1NC(=O)CC1C(=O)NCCN1C(=O)c1cccc(Cl)c1 (stereo unspecified),inactive,
CCOC(=O)C1=C(CC)Nc2ccccc2N/C1=N\S(=O)(=O)c1ccc(C(=O)OCC)cc1,"inconclusive: 20.6 µM [inhibitor, partial curve, poor fit]",
O=C1c2ccccc2C(=O)N1CCOc1cccc(Br)c1,"inconclusive: 20.6 µM [activator, single point]",
O=C(NCC1CCCO1)c1ccccc1-c1nc(-c2ccc(F)cc2)no1 (stereo unspecified),"inconclusive: 20.6 µM [inhibitor, single point]",
Cc1ccc2cc(CN(CC3CCCO3)C(=S)NCc3ccco3)c(=O)[nH]c2c1C (stereo unspecified),"inconclusive: 3.66 µM [inhibitor, partial curve, poor fit]",
c1ccc(-c2cn(-c3ccccc3)c3ncnc(N4CCCCC4)c23)cc1,"inconclusive: 29.1 µM [inhibitor, single point]",
Cc1ccc(C)c(NC(=O)Cc2csc(-c3ccccc3)n2)c1,inactive,

SMILES,Potency,"activity change, negative = inhibition"
CCC(=O)Nc1cccc(NC(=S)NC(=O)c2cccs2)c1,"inconclusive: 6.51 µM [activator, full curve]",
CCOC(=O)C1CCCN(C(=O)c2cn(C)c3ccc(S(=O)(=O)N4CCCC4)cc3c2=O)C1 (stereo unspecified),inactive,
COc1ccccc1N(C)S(=O)(=O)c1ccc(C(=O)N(C)Cc2ccc(OC(F)F)cc2)cc1,active: 16.4 µM,
COCCn1c(C)cc(C(=O)COc2ncnc3ccc(Br)cc23)c1C,"inconclusive: 29.1 µM [activator, single point]",
O=C(CCl)N1CCN(S(=O)(=O)c2ccc3ccccc3c2)CC1,inactive,
NNC(=O)CNC(c1ccccc1)c1cc(Br)ccc1NC(=O)c1cccc(Cl)c1 (stereo unspecified),inactive,
Clc1ccc(-c2csc(=Nc3cccnc3)n2CCCn2ccnc2)cc1Cl,active: 8.2 µM,
COc1cc(/C=C(\C#N)c2[nH]nc(N)c2C#N)cc(OC)c1O,"inconclusive: 23.1 µM [inhibitor, partial curve, poor fit]",
COc1ccc(NC(=O)CS(=O)(=O)c2ccc(Br)cc2)cc1,inactive,
COC(=O)c1sc(NC(=S)NC(=O)c2ccccc2F)nc1C,"inconclusive: 1.3 µM [activator, partial curve]",
Cc1ccc(Nc2nnc(SCC(=O)c3ccc(O)cc3O)s2)cc1,inactive,
O=C1/C(=C/Nc2cccc([N+](=O)[O-])c2)CCc2ccccc21,"inconclusive: 4.61 µM [activator, partial curve]",
COc1ccccc1NC(=O)c1ccc(Br)c(S(=O)(=O)N2CCCC2)c1,inactive,
CCOC(=O)Nc1sc(C)c(C)c1C(N)=O,inactive,
O=C(O)c1ccc(COc2cccc(CO)c2)cc1,"inconclusive: 29.1 µM [activator, single point]",
Cc1ccc(S(=O)(=O)N2CCN(C(=O)C3=COCCO3)CC2)cc1C,"inconclusive: 23.1 µM [inhibitor, partial curve, poor fit]",
CCCNc1nc2c(c(=O)n(C)c(=O)n2C)n1Cc1cccc(C)c1,active: 1.3 µM,
CCCCC(=O)N(Cc1ccc2c(c1)OCO2)Cc1nc2ccccc2c(=O)[nH]1,inactive,
CC1(C)CC(=O)C2=C(C1)N=C1c3ccccc3C(=O)C1C2c1ccc(Cl)cc1 (stereo unspecified),"inconclusive: 29.1 µM [inhibitor, single point]",
Cc1c(C(C)(C)O)[nH]c2cc(C(F)(F)F)ccc12,inactive,
Cc1ccc(C)c(S(=O)(=O)Nc2ccc(O)c(C(=O)O)c2)c1,"inconclusive: 23.1 µM [activator, partial curve, poor fit]",
Cc1cccn2c(=O)c3cc(C(=O)O)n(C)c3nc12,"inconclusive: 23.1 µM [activator, partial curve, poor fit]",
CCOc1ccc2[nH]cc(C(=O)NCc3ccc(F)cc3)c(=O)c2c1,"inconclusive: 23.1 µM [inhibitor, partial curve]",

# An excerpt of these results, with tabs:
SMILES	Potency	activity change, negative = inhibition
CCOC(=O)Nc1sc(C)c(C)c1C(N)=O	inactive	
O=C(O)c1ccc(COc2cccc(CO)c2)cc1	inconclusive: 29.1 µM [activator, single point]	
